Reference: PubChem BioAssay AID652259 (Drosophila RNAi Screening Center, 2013)

- Test: 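Knock-downs that push a Wingless-driven reporter up or down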 (primary screen)
- Cell system: Drosophila clone 8 imaginal disc epithelial cells
- Knock-down reagent: long dsRNA against Drosophila genes
- Challenge: pathway stimulated by co-transfected Wingless expression plasmid
- Measurement: 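Dual luciferase reads per well after Wingless plasmid stimulation: reporter firefly light and Renilla control light; activity is firefly divided by Renilla, a ratio not deposited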
- Direction: firefly reporter light: higher = more Wg reporter light, before normalisation; Renilla control light: higher = more transfected or surviving cells
- Hit rule: 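Strong candidates differ from their plate mean by at least two out of four per-plate statistical tests; weak candidates meet just one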
- Meaning of the calls: active = candidate regulator (raises or lowers reporter); inactive = not a candidate
In all, the deposit lists about 22,000 reagents; this is an unselected part of those with a known target gene and a result. Of all reagents, 233 (1.1%) got an active call. 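Light values are raw, unnormalised plate reads; the ratio scores behind the reporter calls were not deposited.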 Names joined by + are all predicted targets of the reagent. The record does not give: the amount of reagent, the time to read-out, the dose of the treatment.

gene knocked down	PubChem SID	reporter change call, replicate 1	firefly reporter light, replicate 1	firefly reporter light, replicate 2	Renilla control light, replicate 1	Renilla control light, replicate 2	Outcome
tun (GeneID 36743)	SID104185384		18721		12448		inactive
tun (GeneID 36743)	SID104186919		16325		5430		inactive
uno (GeneID 35778)	SID104187036		4747	7932	1130	3451	inactive
CG43345 + CG43346	SID104182956		16169		3896		inactive
CG33282 (GeneID 2768939)	SID104180214		3193	7168	1211	2154	inactive
Cyp12a5 (GeneID 42293)	SID104196413		13270		3512		inactive
CG43077 (GeneID 12797990)	SID104198960		3177		1301		inactive
CG33125 (GeneID 318892)	SID104179937		14053		7699		inactive
Gar1 (GeneID 37397)	SID104184233		2166	9585	476	2787	inactive
Or46a + asRNA:CR43467	SID104187281		4176	11140	1627	3552	inactive
Or46a + asRNA:CR43467	SID104187282		4311	4355	1180	2465	inactive
Or46a + asRNA:CR43467	SID104201297		5.97e5	5.41e5	2.59e5	1.71e5	inactive
CG17470 (GeneID 35321)	SID104182413		5840		2998		inactive
PNKP (GeneID 40994)	SID104196304		12554		3537		inactive
Def (GeneID 36047)	SID104187190		3253	7872	1201	2856	inactive
Bcs1 (GeneID 34360)	SID104182581		2720	7888	707	3192	inactive

Only “Renilla control light, replicate 1”, for 4 of the entries above:
Cyp12a5 (GeneID 42293) [SID104196413]: 3512
CG43077 (GeneID 12797990) [SID104198960]: 1301
CG33125 (GeneID 318892) [SID104179937]: 7699
Gar1 (GeneID 37397) [SID104184233]: 476

More entries follow:
gene knocked down	PubChem SID	reporter change call, replicate 1	firefly reporter light, replicate 1	firefly reporter light, replicate 2	Renilla control light, replicate 1	Renilla control light, replicate 2	Outcome
pall (GeneID 39104)	SID104190156		2345		968		inactive
p115 (GeneID 31698)	SID104198605		14056		8615		inactive
mRNA-cap (GeneID 32379)	SID104199581	Wg reporter activity raised	25058		8682		inactive
CG32457 (GeneID 318040)	SID104191388		4352		1735		inactive
CG32457 (GeneID 318040)	SID104201394		3.36e5	2.87e5	1.23e5	1.00e5	inactive
CG15756 (GeneID 32308)	SID104199513		16938		9060		inactive
BomS2 (GeneID 49802)	SID104201218		5.39e5	5.89e5	2.38e5	2.25e5	inactive
nwk (GeneID 39052)	SID104190231		8163		3373		inactive
nwk (GeneID 39052)	SID104190234		736	10345	835	3152	inactive
CG9500 (GeneID 33888)	SID104183029		2084	4948	248	2201	inactive
roq (GeneID 39818)	SID104190019		4452		2129		inactive
CG18622 (GeneID 42044)	SID104195152		12027		2996		inactive
CG7634 (GeneID 40394)	SID104191635		16657		4352		inactive
